Tested on: 6 Hz (32 mA) model
Assay: 6 Hz (32 mA) psychomotor seizure model of partial epilepsy
Assay type: in vivo, mouse
Details: for PI (protective index, TD50/ED50): 6 Hz (32 mA) ED50, rotorod TD50; for Time to peak effect: 6 Hz (32 mA), ip
From the text: All compounds (FIG. 1) were screened in three whole mouse models: the maximal electroshock model (MES), the scMET test (pentylenetetrazole, Metrazol), and the 6 Hz psychomotor seizure model of partial epilepsy (32 mA). Adult male CF No 1 albino mice (26-30 g) were used for the 6 Hz test and 18-25 g mice were used in the MES and scMet tests. The animals are housed, fed, and handled in a manner consistent with the recommendations in the National Council Publication, “Guide for the Care and Use of Laboratory Animals”. The animal studies were performed by the NINDS Anticonvulsant Screening Program under IACUC number 09-12014. All compounds were administered ip in polyethylene glycol, 30%.
The 6 Hz test (also known as the minimal clonic seizure, or psychomotor test) involved delivering a corneal stimulus of 32 mA for 3 s. This current elicits psychomotor seizures in 97% of untreated animals. Seizures consist of a minimal clonic phase followed by stereotyped automatistic behaviors. Animals not showing such behaviors were considered protected. Toxicity was determined by the rotorod test. For this test, the animal is placed on a rotorod at 6 rpm following dosing. The animal is considered toxic if it falls off the rotorod three times in a 1 min period. The ED50, TD50 and confidence intervals were determined by probit analysis.

SMILES | PI (protective index, TD50/ED50) | Time to peak effect
CCC(C)c1cc(C(O)C(F)(F)F)ccc1O (centres unmarked) [RM131, 2-sec-Butyl-4-(2,2,2-trifluoro-1-hydroxy-ethyl)-phenol] | 1.6 | 0.5 h
CC(C)c1cc(C(O)C(F)(F)F)ccc1O (centres unmarked) [RM125, 2-iso-Propyl-4-(2,2,2-trifluoro-1-hydroxy-ethyl)-phenol] | 1.9 | 0.25 h
CC(C)c1cc(C(O)C(F)(F)F)cc(Br)c1O (centres unmarked) [RM122, 2-Bromo-6-isopropyl-4-(2,2,2-trifluoro-1-hydroxy-ethyl)-phenol] | 3.6 | 0.5 h
CCC(C)c1cc(C(O)C(F)(F)F)cc(Br)c1O (centres unmarked) [RM129, 2-Bromo-6-sec-Butyl-4-(2,2,2-trifluoro-1-hydroxy-ethyl)-phenol] | 1.7 | 0.5 h

From patent US9422248B2 (University of Iowa Research Foundation, priority 2012, dated 2016)
